Results are given in words; binding and its absence hold for the method and conditions named. Some entries that bind do so weakly or less than the wild type. Tags and fused reporters may be left off the sequences shown.
What was measured:
[1] = biological target: T1, murine K12, full length, on transfected cells (mouse) (UniProt Q9JL59); experiment: Fc fusion binding to transfected cells
T1 sequence: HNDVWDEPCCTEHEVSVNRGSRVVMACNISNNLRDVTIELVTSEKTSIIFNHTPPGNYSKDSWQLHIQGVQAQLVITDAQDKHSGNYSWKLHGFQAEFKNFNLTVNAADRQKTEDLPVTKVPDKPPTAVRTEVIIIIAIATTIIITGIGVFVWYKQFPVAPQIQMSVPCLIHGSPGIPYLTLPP

[2] = biological target: T1, murine K12, full length, on transfected cells (mouse); experiment: Fc fusion binding to transfected cells, 125I anti-human Fc

B1: murine CD7-Fc fusion protein (Fc fusion, not shown: a dimerising Fc or GST)
chain: QDVHQSPRLTIASEGDSVNITCSTRGHLEGILMKKIWPQAYNVIYLEDRQEPTVDRTFSGRINFSGSQKNLTITISSLQLADTGDYTCEAVRKVSARGLFTTVVVKEKSSQEAYRSQEPLQTSFSFP
binding [1]: binds | binding [2]: binds
